Article PMC5236087, “A Generic Multi-Compartmental CNS Distribution Model Structure for 9 Drugs Allows Prediction of Human Brain Target Site Concentrations” (Pharmaceutical Research, 2016)
Where two headings read alike, the source gives them in different places.

Legend:
[1] = cited from earlier work
[2] = In-vivo recovery of microdialysis probes (retrodialysis); design: species or system rat

## CC(=O)Nc1ccc(O)cc1 [Acetaminophen]
[1]; BrainECF probe, ref Westerhout, 2011
  in vivo recovery (loss %): 12.0%
[1]; CSFCM probe, ref Westerhout, 2011
  in vivo recovery (loss %): 8.60%
[1]; CSFLV probe, ref Westerhout, 2011
  in vivo recovery (loss %): 8.10%

## CC(C)NCC(O)COc1ccc(CC(N)=O)cc1 (stereo not shown) [Atenolol]
[1]; BrainECF probe, ref de lange, 1994
  in vivo recovery (loss %): BrainECF: 13.0%

## CN(Cc1cnc2nc(N)nc(N)c2n1)c1ccc(C(=O)N[C@@H](CCC(=O)O)C(=O)O)cc1 [Methotrexate]
[1]; BrainECF probe, with probenecid, ref Westerhout, 2014
  in vivo recovery (loss %): 7.10%
[1]; BrainECF probe, without probenecid, ref Westerhout, 2014
  in vivo recovery (loss %): 22.1%
[1]; CSFCM probe, with probenecid, ref Westerhout, 2014
  in vivo recovery (loss %): 21.6%
[1]; CSFCM probe, without probenecid, ref Westerhout, 2014
  in vivo recovery (loss %): 35.9%
[1]; CSFLV probe, with probenecid, ref Westerhout, 2014
  in vivo recovery (loss %): 16.9%
[1]; CSFLV probe, without probenecid, ref Westerhout, 2014
  in vivo recovery (loss %): 28.1%

## CN1CC[C@]23c4c5ccc(O)c4O[C@H]2[C@@H](O)C=C[C@H]3[C@H]1C5 [Morphine]
[1]; BrainECF probe, 4mg/kg, ref Groenendaal, 2007
  in vivo recovery (loss %): 16.1%
[1]; BrainECF probe, 40mg/kg, ref Groenendaal, 2007
  in vivo recovery (loss %): 20.3%
[1]; BrainECF probe, ref Bouw, 2000
  in vivo recovery (loss %): 8.40%
[1]; Plasma probe, ref Bouw, 2000
  in vivo recovery (loss %): 40.9%

## Cc1nc2n(c(=O)c1CCN1CCC(c3noc4cc(F)ccc34)CC1)CCCC2O (stereo not shown) [Paliperidone]
[2]; BrainECF probe
  in vivo recovery (loss %): 18.0%
[2]; CSFCM probe
  in vivo recovery (loss %): 10.0%

## O=C1NC(=O)C(c2ccccc2)(c2ccccc2)N1 [Phenytoin]
[2]; BrainECF probe
  in vivo recovery (loss %): BrainECF: 35.0%

## C=C[C@H]1C[N@@]2CC[C@H]1C[C@@H]2[C@@H](O)c1ccnc2ccc(OC)cc12 [Quinidine]
[1]; BrainECF probe, ref Westerhout, 2013
  in vivo recovery (loss %): 9.10%
[1]; CSFCM probe, ref Westerhout, 2013
  in vivo recovery (loss %): 3.50%
[1]; CSFLV probe, ref Westerhout, 2013
  in vivo recovery (loss %): 2.90%

## Cc1nc2n(c(=O)c1CCN1CCC(c3noc4cc(F)ccc34)CC1)CCCC2 [Risperidone]
[2]; BrainECF probe
  in vivo recovery (loss %): 22.0%
[2]; CSFCM probe
  in vivo recovery (loss %): 10.0%
